# Reference: the supplement of paper PMC8728848
# The list shows a part of the results.
# B1: SRS2 (Toxoplasma gondii), O15695 (protein)
# chain: MATRASLARQKTGAACLAVLTASPSVVAAKPWKRWVGVSVILASAFAVGVSAGPPYRYEPEKFTCRPKKGILSQWVSLLYQVQHNITFACEEATPVPTTLISEEHGLMVCAENMTPEECEANPAPLSAFLPGATKEWVTGDSVLTGLKISVPESQYPANAKSFRVGCRHNTKTGNTCMLTIHVEPRDPAVERQEARCSYTENSTLPKIFVTKDSNTMTLACGPHGAPMPESYTENYCSTPDTCDEKPFTSVIPGYLSKWFFGDPKSPLGARVRIPPEQIPSSPQINYFGCTGPTEGEGPKYNCTVPVPLGGGDPSEGSRPGGGSGGGKRGGGQGGGGSLAGFDFRQGSARHSLPSRMALSASALLAMTALAY
# Legend:
# Assay in all cases: glycan array binding signal (z-score within array); higher = stronger binding
# Conditions in all cases: glycan notation: IUPAC condensed, linker removed
# [1] = molecular target: Neu5Ac(a2-6)Gal(b1-4)GlcNAc6S
# Method in brief: (§1)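 Arrays were curated from the Consortium for Functional Glycomics database, 3228 in total, and kept only where the protein sequence was available. Binding is expressed as a within-array Z-score. This score was averaged across arrays of the same protein sequence at different concentrations or buffers and across linkers, and negative values can be read as non-binding.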
# Neu5Ac(a2-6)GalNAc = molecular target: Neu5Ac(a2-6)GalNAc
# Method in brief: as §1
# [2] = molecular target: Neu5Ac(a2-6)GalNAc(b1-4)GlcNAc
# Method in brief: as §1
# [3] = molecular target: Neu5Ac(a2-6)GlcNAc(b1-4)GlcNAc
# Method in brief: as §1
# [4] = molecular target: Neu5Ac(a2-6)GlcNAc(b1-4)GlcNAc(b1-4)GlcNAc
# Method in brief: as §1
# Neu5Ac(a2-8)Neu5Ac = molecular target: Neu5Ac(a2-8)Neu5Ac
# Method in brief: as §1
# [5] = molecular target: Neu5Ac(a2-8)Neu5Ac(a2-3)Gal(b1-4)Glc
# Method in brief: as §1
# [6] = molecular target: Neu5Ac(a2-8)Neu5Ac(a2-3)[GalNAc(b1-4)]Gal(b1-4)Glc
# Method in brief: as §1
# [7] = molecular target: Neu5Ac(a2-8)Neu5Ac(a2-8)Neu5Ac
# Method in brief: as §1
# [8] = molecular target: Neu5Ac(a2-8)Neu5Ac(a2-8)Neu5Ac(a2-3)Gal(b1-4)Glc
# Method in brief: as §1
# [9] = molecular target: Neu5Ac(a2-8)Neu5Ac(a2-8)Neu5Ac(a2-3)[GalNAc(b1-4)]Gal(b1-4)Glc
# Method in brief: as §1
# [10] = molecular target: Neu5Ac(a2-8)Neu5Ac(a2-8)Neu5Ac(a2-8)Neu5Ac(a2-3)[GalNAc(b1-4)]Gal(b1-4)Glc
# Method in brief: as §1
# [11] = molecular target: Neu5Ac(b2-6)Gal(b1-4)GlcNAc
# Method in brief: as §1
# Neu5Ac(b2-6)GalNAc = molecular target: Neu5Ac(b2-6)GalNAc
# Method in brief: as §1
# [12] = molecular target: Neu5Ac9Ac(a2-3)Gal(b1-3)GlcNAc
# Method in brief: as §1
# [13] = molecular target: Neu5Ac9Ac(a2-3)Gal(b1-4)GlcNAc
# Method in brief: as §1
# [14] = molecular target: Neu5Ac9Ac(a2-6)Gal(b1-4)GlcNAc
# Method in brief: as §1
# [15] = molecular target: Neu5Gc(a2-3)Gal(b1-3)GlcNAc
# Method in brief: as §1
# [16] = molecular target: Neu5Gc(a2-3)Gal(b1-3)[Fuc(a1-4)]GlcNAc
# Method in brief: as §1
# Neu5Gc(a2-3)Gal(b1-4)Glc = molecular target: Neu5Gc(a2-3)Gal(b1-4)Glc
# Method in brief: as §1
# [17] = molecular target: Neu5Gc(a2-3)Gal(b1-4)GlcNAc
# Method in brief: as §1
# [18] = molecular target: Neu5Gc(a2-3)Gal(b1-4)[Fuc(a1-3)]GlcNAc
# Method in brief: as §1
# [19] = molecular target: Neu5Gc(a2-6)Gal(b1-4)GlcNAc
# Method in brief: as §1
# Neu5Gc(a2-6)GalNAc = molecular target: Neu5Gc(a2-6)GalNAc
# Method in brief: as §1
# [20] = molecular target: Neu5Gc(b2-6)Gal(b1-4)GlcNAc
# Method in brief: as §1
binder,measurement,setting,value
B1,glycan array binding signal (z-score),[1],-0.529
same,glycan array binding signal (z-score),Neu5Ac(a2-6)GalNAc,-0.444
same,glycan array binding signal (z-score),[2],-0.117
same,glycan array binding signal (z-score),[3],-0.439
same,glycan array binding signal (z-score),[4],-0.445
same,glycan array binding signal (z-score),Neu5Ac(a2-8)Neu5Ac,-0.204
same,glycan array binding signal (z-score),[5],0.564
same,glycan array binding signal (z-score),[6],0.109
same,glycan array binding signal (z-score),[7],-0.03
same,glycan array binding signal (z-score),[8],0.675
same,glycan array binding signal (z-score),[9],0.301
same,glycan array binding signal (z-score),[10],-0.082
same,glycan array binding signal (z-score),[11],0.865
same,glycan array binding signal (z-score),Neu5Ac(b2-6)GalNAc,-0.634
same,glycan array binding signal (z-score),[12],-1.14
same,glycan array binding signal (z-score),[13],-0.016
same,glycan array binding signal (z-score),[14],-0.343
same,glycan array binding signal (z-score),[15],-0.209
same,glycan array binding signal (z-score),[16],-0.409
same,glycan array binding signal (z-score),Neu5Gc(a2-3)Gal(b1-4)Glc,-0.697
same,glycan array binding signal (z-score),[17],-0.295
same,glycan array binding signal (z-score),[18],-0.229
same,glycan array binding signal (z-score),[19],-0.03
same,glycan array binding signal (z-score),Neu5Gc(a2-6)GalNAc,-0.068
same,glycan array binding signal (z-score),[20],-0.695

# Quoted from above (2 entries):
binder,measurement,setting,value
B1,glycan array binding signal (z-score),[8],0.675
same,glycan array binding signal (z-score),[9],0.301
